In PMC9166435:
No constants are given. Whether binding was seen depends on the method and setting. In cells and extracts the contact can be indirect. Some entries that bind do so weakly or less than the wild type.

Protein sequences, listed by entry. Tags and fused reporters are not part of them.
UniProt Q7KZF4: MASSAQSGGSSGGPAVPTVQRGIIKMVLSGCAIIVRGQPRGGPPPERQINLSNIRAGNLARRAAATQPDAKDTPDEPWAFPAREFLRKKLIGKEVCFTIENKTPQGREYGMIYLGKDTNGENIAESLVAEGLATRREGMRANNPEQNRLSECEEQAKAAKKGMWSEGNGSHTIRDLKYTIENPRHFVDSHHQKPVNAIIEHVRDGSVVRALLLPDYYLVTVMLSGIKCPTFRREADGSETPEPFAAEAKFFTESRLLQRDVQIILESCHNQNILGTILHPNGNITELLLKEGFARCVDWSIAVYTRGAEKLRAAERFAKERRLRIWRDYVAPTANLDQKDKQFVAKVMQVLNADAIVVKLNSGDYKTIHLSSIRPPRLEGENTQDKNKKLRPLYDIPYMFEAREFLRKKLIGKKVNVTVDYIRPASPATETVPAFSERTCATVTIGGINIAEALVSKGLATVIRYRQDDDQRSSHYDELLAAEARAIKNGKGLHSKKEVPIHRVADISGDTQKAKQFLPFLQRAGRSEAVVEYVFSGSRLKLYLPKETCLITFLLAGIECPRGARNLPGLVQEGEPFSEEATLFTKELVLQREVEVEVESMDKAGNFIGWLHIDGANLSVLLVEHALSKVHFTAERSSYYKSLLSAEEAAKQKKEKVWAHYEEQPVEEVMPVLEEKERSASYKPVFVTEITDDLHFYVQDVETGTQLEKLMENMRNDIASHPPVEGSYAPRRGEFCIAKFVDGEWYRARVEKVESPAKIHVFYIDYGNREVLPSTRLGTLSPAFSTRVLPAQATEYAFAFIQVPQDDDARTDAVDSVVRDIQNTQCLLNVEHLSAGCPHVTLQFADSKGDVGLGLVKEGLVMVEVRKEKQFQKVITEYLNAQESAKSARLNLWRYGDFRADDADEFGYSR
UniProt P10242: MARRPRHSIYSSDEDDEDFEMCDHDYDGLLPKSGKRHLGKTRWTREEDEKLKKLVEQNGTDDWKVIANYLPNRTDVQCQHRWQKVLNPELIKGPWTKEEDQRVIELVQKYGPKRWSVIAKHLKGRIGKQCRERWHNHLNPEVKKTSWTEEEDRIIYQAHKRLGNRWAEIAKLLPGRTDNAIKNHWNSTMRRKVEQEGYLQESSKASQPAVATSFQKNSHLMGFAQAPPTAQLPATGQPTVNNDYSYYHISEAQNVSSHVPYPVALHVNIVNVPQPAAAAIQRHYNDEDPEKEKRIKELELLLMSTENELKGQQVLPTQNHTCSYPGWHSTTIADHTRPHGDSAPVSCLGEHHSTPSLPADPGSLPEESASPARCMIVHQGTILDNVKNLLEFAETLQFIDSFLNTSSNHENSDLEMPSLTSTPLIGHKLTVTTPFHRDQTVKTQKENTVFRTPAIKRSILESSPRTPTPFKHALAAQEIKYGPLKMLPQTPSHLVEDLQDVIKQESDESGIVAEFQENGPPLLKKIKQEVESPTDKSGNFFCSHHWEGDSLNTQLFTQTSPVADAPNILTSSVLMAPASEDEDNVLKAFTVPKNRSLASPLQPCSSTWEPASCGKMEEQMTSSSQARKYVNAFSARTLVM

Biological target: Staphylococcal Nuclease And Tudor Domain Containing 1 (human (endogenous in PCa cell lines)) (UniProt Q7KZF4)
Assay: co-IP; about 10^7 PCa cells lysed in IP buffer (50 mM Tris-HCl pH 7.4, 150 mM NaCl, 2 mM EDTA, 1% NP-40); anti-SND1 or anti-C-Myb antibody, Protein A/G magnetic beads; IgG as negative control; western blot; cells with or without overexpression of circ_0004087

- binding: binds
Substance: MYB (from UniProt P10242 1-640)
